Reference: PubChem BioAssay AID2685 (National Center for Advancing Translational Sciences (NCATS), 2010)
This is one part of the list. The main result of the screen is listed elsewhere. These columns were measured beside it and carry no call. Compounds called inactive in the main read-out are mostly missing here. The note in brackets gives the kind of curve behind each potency; many fits are weak.

Assay: qHTS Assay for Lipid Storage Modulators in Drosophila S3 Cells;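 as to cell number change: cells counted by Cell Tracker Red CMTPX staining in the red channel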
Settings: BODIPY lipid droplet fluorescence, 18-24 h; for cell number change: measured here: cell count max response, cells fed with added oleic acid
Method in brief: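 Laser-scanning cytometry quantifies lipid droplet accumulation (500–530 nm total intensity; droplet/cell object ratio) in oleic acid-fed (400 uM added) Drosophila S3 cells treated with a concentration series. 20 uM Triacsin C defined 100% inhibition.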

[1] = measured here: lipid fluorescence (Fed channel) AC50, cells fed with added oleic acid
[2] = measured here: cell number channel AC50, cells fed with added oleic acid

Structure (SMILES)	cell number change [%]	AC50 [1]	AC50 [2]
Cc1ccc(C)c(NS(=O)(=O)c2cc(C(=O)N3CCc4ccccc4C3)ccc2Cl)c1	5.44		
COc1ccccc1C1(CCNS(=O)(=O)c2ccc(C)cc2)CCOC(C(C)C)C1 (stereo not given)	13.1	6.51 µM [falling, single point]	
Nc1cc(S(=O)(=O)Nc2ccc(Br)cc2)ccc1Cl	-61.6	18.4 µM [falling, single point]	16.4 µM [falling, single point]
CCOc1ccc2[nH]c(=O)c(CN(Cc3ccccc3)C(=O)N3CCCC3)cc2c1			1.3 µM [rising, partial curve]
NNC(=O)c1sccc1OCc1ccc(F)cc1	-28.9		
CCS(=O)(=O)c1nc(S(=O)(=O)c2ccc(C)cc2)c(N2CC(C)OC(C)C2)s1 (stereo not given)	-18.3	20.6 µM [falling, single point]	
CCNS(=O)(=O)c1ccc(NC(=O)c2ccccc2OCC)cc1	4.43	18.4 µM [rising, partial curve]	
Cn1c(C=O)c(C#CC(C)(C)O)c2ccccc21	-4.29	0.731 µM [falling, partial curve]	
CCOC(=O)c1c(S(=O)(=O)NCc2ccc(C)o2)c(C)n(C)c1C	-6.42	29.1 µM [falling, single point]	
O=C(NCc1cccnc1)C1CCN(S(=O)(=O)c2cccnc2)CC1	17		0.00461 µM [rising, full curve, poor fit]
CCOc1ccc(C(=O)COc2ccc(NC(C)=O)cc2)cc1	-5.06		0.00517 µM [rising, full curve, poor fit]
OC1CCCN(C(=S)Nc2ccc(SC(F)F)cc2)C1 (stereo not given)	16.8	8.2 µM [rising, partial curve, poor fit]	
COc1cc(C(=O)OCC(=O)NC(N)=O)cc(CN2C(=O)c3ccccc3C2=O)c1OC	20.1	0.651 µM [rising, full curve, poor fit]	
COc1ccccc1NS(=O)(=O)c1cccc(C(=O)NCC(c2ccco2)N2CCCC2)c1 (stereo not given)	2.95	5.17 µM [rising, partial curve, poor fit]	
Nc1ncc(-c2cc3ccccc3oc2=O)s1	-12.4	0.461 µM [rising, partial curve, poor fit]	
OCCN1CCN(C(=S)Nc2ccc(SC(F)F)cc2)CC1	23.3		4.61 µM [rising, full curve, poor fit]
COc1ccccc1CNc1ccc(Br)cn1	-30.6		16.4 µM [falling, single point]
Cc1cccc(NC(=O)/C(C#N)=C/c2cn(CC(=O)NCc3ccco3)c3ccccc23)c1	17.1	7.31 µM [rising, partial curve]	
CC(O)CNc1nc2c(c(=O)n(C)c(=O)n2C)n1Cc1cccc(Br)c1 (stereo not given)	46.7	18.4 µM [falling, single point]	32.6 µM [rising, single point]
Cc1ccnc(NS(=O)(=O)c2ccc(NC(=O)C3CC=CCC3C(=O)O)cc2)n1 (stereo not given)	18.9	6.51 µM [falling, single point]	
CS(=O)(=O)CCC(C(=O)n1nnc2ccccc21)N1C(=O)c2ccccc2C1=O (stereo not given)	-11.5	3.66 µM [falling, full curve, poor fit]	

Structure (SMILES)	cell number change [%]	AC50 [1]	AC50 [2]
CCOc1ccc(N=NC2C(=O)N(C(N)=S)N=C2C)cc1 (stereo not given)		4.61 µM [falling, partial curve]	
O=C(CN1C(=O)NC2(CCCC2)C1=O)OCCOc1ccccc1	19.8		3.26 µM [rising, single point]
Cc1onc(-c2ccccc2)c1C(=O)Nc1ccc(S(=O)(=O)N2CCCCC2)cc1	-6.42	32.6 µM [falling, single point]	
COc1cc(C(=O)Nc2ccc(C(=O)c3cccs3)cc2)cc(OC)c1OC	-5.52		
COc1ccccc1N=C1NC(=O)/C(=C/c2ccc(N(C)C)cc2)S1		6.51 µM [falling, partial curve]	
CC(C)C(=O)Nc1cccc(-c2nc3ccccc3o2)c1	-46.9	0.731 µM [rising, full curve, poor fit]	10.3 µM [falling, partial curve, poor fit]
COC(=O)c1c(C)[nH]c(C(=O)C(C)OC(=O)C2=NNC(=O)CC2)c1C (stereo not given)	9.45		
CCCn1c2ccccc2c2cnn(CC(=O)NCCOC)c(=O)c21	24.3		
Cc1nn(C)c(C)c1/C=C1/SC(=S)NC1=O		3.26 µM [rising, single point]	
CC(=O)c1ccc(OCC(O)CN2CCN(S(=O)(=O)c3c(C)c(C)cc(C)c3C)CC2)cc1 (stereo not given)	-19.8	6.51 µM [rising, single point]	
Cc1ccc(Cn2c(SCC(C)C)nc3c2c(=O)[nH]c(=O)n3C)cc1	-16.2	6.51 µM [falling, single point]	4.11 µM [falling, single point]
O=C(NNC(=O)c1cc(-c2ccncc2)nc2ccccc12)Nc1ccc(F)cc1	19	3.55 µM [rising, partial curve]	
CCCCn1nc(C(=O)Nc2cccc(C(=O)NC3CC3)c2)c2ccccc2c1=O	26.6	25.9 µM [falling, single point]	
O=C(NCc1cccs1)c1cc2ccccc2o1	-9.03		
COCC(=O)OCC(=O)Nc1ccccc1-c1ccccc1			0.092 µM [falling, full curve, poor fit]
CC1CCN(S(=O)(=O)c2cn(CC(=O)N3CCN(C)CC3)c(=O)c3ccccc23)CC1	-16.3	25.9 µM [rising, single point]	
COC(=O)c1ccccc1NC(=O)c1ccc(NS(C)(=O)=O)cc1	110	1.84 µM [rising, full curve]	2.06 µM [rising, full curve]
CCS(=O)(=O)N1Cc2ccccc2CC1C(=O)OCC(=O)N(C(C)C)C(C)C (stereo not given)	14.9		
Cc1ccc([N+](=O)[O-])cc1NC(=O)C1CCCC1	8.2	0.651 µM [rising, single point]	
CCOc1ccc(NCC(=O)Nc2ccc(Cl)cc2C)cc1	-34.2	18.4 µM [falling, single point]	20.6 µM [falling, single point]
C=CCN1C(=O)C2(OCCCO2)c2cccc(Cl)c21	-14.2		0.0103 µM [falling, full curve, poor fit]

Structure (SMILES)	cell number change [%]	AC50 [1]	AC50 [2]
COc1ccccc1NS(=O)(=O)c1ccc2oc(SCC(C)=O)nc2c1	3.78		
O=C(CSc1nc(-c2ccco2)cc(C(F)(F)F)n1)NCCCN1CCOCC1	-25.5	29.1 µM [falling, single point]	
O=C(O)CN=CC1=C(O)CC(c2ccccc2)CC1=O (stereo not given)	22.8	0.731 µM [rising, full curve, poor fit]	
NC(=O)C1CC(=O)N(c2ccc(OCc3ccc(F)cc3)cc2)C1 (stereo not given)	18.5	6.51 µM [rising, single point]	
O=C(NNC(=O)c1ccccc1F)c1ccc(NS(=O)(=O)c2ccc(F)cc2)cc1	-4.82		
COc1cc2nc(NCC3CCCO3)n3nc(-c4cccnc4)nc3c2cc1OC (stereo not given)	6.17		
Cc1ccc(C2=NN(S(=O)(=O)c3ccccc3)C(c3ccco3)C2)cc1 (stereo not given)	-9.33		
Cc1ccc(S(=O)(=O)NCC(=O)N/N=C/c2ccc(Cl)cc2Cl)cc1	-36.2	29.1 µM [falling, single point]	29.1 µM [falling, single point]
O=S(=O)(Nc1ccncc1)c1cc(Cl)c(Cl)cc1Cl	-14.4	6.51 µM [falling, single point]	
O=C(Cn1nnc2ccccc2c1=O)NCCc1ccc(F)cc1	-33.3		3.26 µM [rising, partial curve]
CCOC(=O)c1c(C)c(C(=O)NC2CCCCC2)c(C)n1CC		3.66 µM [rising, single point]	
N#Cc1ccc(-c2csc(NC(=O)C3CC3)n2)cc1	31.3		3.66 µM [rising, single point]
O=C(COC(=O)c1ccccc1NS(=O)(=O)c1cccs1)NC1CCCCC1	-13.2	29.1 µM [falling, single point]	
CN(C(=O)CN1C(=O)c2cc(Cl)c(Cl)cc2C1=O)C1CCS(=O)(=O)C1 (stereo not given)	9.61	4.61 µM [rising, single point]	
COc1cc(C(=O)NC(C)C2CC3CCC2C3)ccc1OC(F)F (stereo not given)	27.6	1.03 µM [rising, full curve]	
Nc1nc2nc(-c3ccc(OCc4ccccc4)cc3)cc(C(F)(F)F)n2n1		0.731 µM [rising, single point]	
CC(=O)Nc1ccc(S(=O)(=O)N2CCSC2C(=O)O)cc1 (stereo not given)	48.3	29.1 µM [rising, single point]	29.1 µM [rising, single point]
Cc1ccc2oc(C(=O)Nc3nnc(C)s3)c(C)c2c1			2.59 µM [rising, single point]
O=C(Cn1nc(CNc2ccc(Br)cc2)[n+]2c1CCCCC2)c1ccc([N+](=O)[O-])cc1	-21.8	29.1 µM [falling, single point]	
COc1ccccc1CNC(=O)COC(=O)Cc1c[nH]c2ccccc12	6	2.06 µM [falling, partial curve]	
O=C(CCc1nnc(CCCCc2ccccc2)o1)NCCC1CCCCO1 (stereo not given)	-17.9	29.1 µM [falling, single point]	

For reference, 4 of the compounds above:
Structure (SMILES)	cell number change [%]	AC50 [1]	AC50 [2]
Cc1nn(C)c(C)c1/C=C1/SC(=S)NC1=O		3.26 µM [rising, single point]	
CC(=O)c1ccc(OCC(O)CN2CCN(S(=O)(=O)c3c(C)c(C)cc(C)c3C)CC2)cc1 (stereo not given)	-19.8	6.51 µM [rising, single point]	
Cc1ccc(Cn2c(SCC(C)C)nc3c2c(=O)[nH]c(=O)n3C)cc1	-16.2	6.51 µM [falling, single point]	4.11 µM [falling, single point]
O=C(NNC(=O)c1cc(-c2ccncc2)nc2ccccc12)Nc1ccc(F)cc1	19	3.55 µM [rising, partial curve]	
